Laboratory results from PubChem BioAssay AID1347075 (National Center for Advancing Translational Sciences (NCATS), 2019).
Hit rate of the full screen: of about 400,000 compounds, about 5,500 (1.4%) were called active. Inconclusive means that the source gave no clear call. Such entries were picked first, then a sample of the others. Calls follow the shape of the dose curve; as a rule, active = well fitted cell-killing curve with a large enough effect; inconclusive = small, poorly fitted or top-dose-only effect, or effect the other way; inactive = flat fitted curve, though single readings scatter. Potencies beside an inconclusive call are fits to weak or partial responses and may not hold up.

experiment: qHTS assay for MDR1-selective chemotherapeutics: Primary screen using the parental adenocarcinoma cell KB-3-1; settings: KB-3-1 viability, CellTiter-Glo ATP luminescence, 72 h; activity change, negative = cytotoxic: at 46.1 µM (top of the series); also: nearly all actives have a fitted effect of over 60% in size
Method in brief: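 Cells are dispensed, compounds pinned in, plates held at 37 °C for 72 h, then CellTiter-Glo is added and luminescence read after 10 minutes. Cell line: parental KB-3-1 in phenol-red-free DMEM, 10% FBS.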
% is scaled to controls: 0 for no effect and ±100 for the full control effect; potency is read from the fitted curve at half-maximal effect.

Row | SMILES | Potency | activity change, negative = cytotoxic
1 | CN(C(=O)NC1CCCCC1)[C@H]1C[C@H]2c3[nH]c4ccccc4c3CCN2C(=O)[C@H]1CO | active: 6.51 µM | 
2 | Cc1nn(Cc2ccccc2Cl)c2sc(C(=O)OC3CCCC3=O)cc12 (configuration not stated) |  | inactive: -6.71%
3 | O=C(NCCOCCO)C(=O)Nc1c2c(nn1-c1ccc(F)cc1)CSC2 |  | inactive: 3.43%
4 | O=C(NNc1nc2cc3c(cc2s1)OCO3)c1cccc(F)c1 | inconclusive: 29.1 µM [cytotoxic, single point] | 
5 | COc1cccc(-c2cnc3c(NC(C)=O)cc(-c4cccc(C(=O)NCCO)c4)cn23)c1 |  | inactive: 0%
6 | CC(C)OC(=O)c1cc(NC(=S)Nc2ccc([N+](=O)[O-])cc2)cc(C(=O)OC(C)C)c1 | inconclusive: 29.1 µM [cytotoxic, single point] | 
7 | Cc1nn2c(NCCCn3ccnc3)cc(C(C)C)nc2c1-c1ccccc1 |  | inactive: -0.934%
8 | CCOC(=O)c1nc2cc3n(c(CC(C)C)c-2c1C)CC(C)=C3C |  | inactive: 0.242%
9 | CC(C)c1ccc2nc(NC(=O)C3CC3)sc2c1 | inconclusive: 18.4 µM [cytotoxic, single point] | 
10 | Cc1cccc(C(=O)Nc2cccc(C(=O)N/N=C/c3cccc(C)n3)c2)c1 |  | inactive: 18.9%
11 | CCN(C(=O)c1cnc(N2CCN(c3ncccn3)CC2)c2ccccc12)c1cccc(Cl)c1 | inconclusive: 29.1 µM [cytotoxic, single point] | 
12 | O=[N+]([O-])c1ccc2c(c1N1CCCCC1)=NC1(CCCCC1)[N+]=2[O-] |  | inactive: -8.82%
13 | CCc1c(C)nc2[nH]ncn2c1=O |  | inactive: 2.1%
14 | COc1ccc(CCC(=O)NCC2CCCCC2)cc1OC | inconclusive: 2.06 µM [rising, full curve, poor fit] | 
15 | O=C(CSc1nc(-c2cccs2)cc(C(F)(F)F)n1)NCc1ccccc1 |  | inactive: 0%
16 | CCN(CC)C(=O)c1cccc(-c2csc(C(C)(O)c3ccncc3)n2)c1 (configuration not stated) |  | inactive: -2.27%
17 | COc1ccc(CNC(=O)COc2ccc(C(=O)c3ccc(F)cc3)cc2)cc1 | inconclusive: 20.6 µM [cytotoxic, single point] | 
18 | CCOC(=O)C1=C(N)Oc2ccc3ccccc3c2C1c1cccc(O)c1 (configuration not stated) |  | inactive: -6.46%
19 | O=C(NCCN1C(=O)S/C(=C\c2ccc(OC(F)F)cc2)C1=O)C1=COCCO1 | inconclusive: 29.1 µM [cytotoxic, single point] | 
20 | CC(=O)c1cccc(-c2ccnc3c2CC(C(=O)Nc2cccc(OC(F)(F)F)c2)O3)c1 (configuration not stated) |  | inactive: -0.26%
21 | COc1ccc(C(=O)NNC(=O)C(=O)Nc2ccc(C)c(Cl)c2)cc1 |  | inactive: 2.79%
22 | CC(C)(C)C1CCC(OCC(O)CN2CCN(c3ccccn3)CC2)CC1 (configuration not stated) | inconclusive: 23.1 µM [cytotoxic, partial curve] | 
23 | CC(=O)c1ccc(N2CCN(c3ccccc3O)CC2)c([N+](=O)[O-])c1 | inconclusive: 29.1 µM [cytotoxic, partial curve, poor fit] | 
24 | O=C(Nc1cccc(Cl)c1)N1CCN2C(=O)c3ccccc3C12c1ccccc1 (configuration not stated) | inconclusive: 29.1 µM [cytotoxic, single point] | 

Copied from the list.
activity change, negative = cytotoxic with COc1cccc(-c2cnc3c(NC(C)=O)cc(-c4cccc(C(=O)NCCO)c4)cn23)c1 is entered as inactive: 0%
activity change, negative = cytotoxic with O=[N+]([O-])c1ccc2c(c1N1CCCCC1)=NC1(CCCCC1)[N+]=2[O-] is entered as inactive: -8.82%

Continuation:

Row | SMILES | Potency | activity change, negative = cytotoxic
25 | Cc1c(C)n(Cc2ccccc2)c2ccc(C(=O)NCCCN3CCOCC3)cc12 | inconclusive: 20.6 µM [cytotoxic, single point] | 
26 | Cc1ccnc2nc(C(=O)Nc3ccc4c(c3)OCO4)nn12 | inconclusive: 20.6 µM [cytotoxic, single point] | 
27 | Cc1csc(NC(=O)c2ccc(C)c(S(=O)(=O)N3CCCCC3)c2)n1 | inconclusive: 32.6 µM [cytotoxic, single point] | 
28 | CCC(C)CN1C(=O)CN(S(C)(=O)=O)CC1(C)C(=O)NCc1ccccc1 (configuration not stated) |  | inactive: 3.62%
29 | O=C(Nc1ccc(Cl)cc1)c1csc(-c2ccncc2)n1 |  | inconclusive: 330%
30 | C=CCC[C@H](Cc1ccc(F)cc1)C(=O)OC[C@H](Cc1c[nH]c2ccccc12)NC(=O)[C@H](CC=C)CC(=O)N(CCO)Cc1ccccc1 | inconclusive: 29.1 µM [cytotoxic, single point] | 
31 | FC(F)(F)c1cc(Cl)c2nc(-c3ccccc3)c(Cc3ccsc3)n2c1 | inconclusive: 23.1 µM [cytotoxic, single point] | 
32 | CCOC(=O)N1CCC(Nc2c(NCCCN(CC)c3cccc(C)c3)c(=O)c2=O)CC1 | inconclusive: 18.4 µM [cytotoxic, partial curve] | 
33 | NC(=O)NC(=O)CSc1nc2cc([N+](=O)[O-])ccc2n1-c1cccc(C(F)(F)F)c1 | inconclusive: 18.4 µM [cytotoxic, single point] | 
34 | O=C(COc1ccc(F)c(Cl)c1)NC(=O)NC1CCCC1 |  | inactive: 11%
35 | CC(C)(C)c1ccc(CSc2nc3c(c(=O)[nH]2)CCCC3)cc1 |  | inactive: -10.1%
36 | COc1cc2c(cc1NC(=O)Nc1ccc(C)cc1)oc1ccccc12 | inconclusive: 20 µM [cytotoxic, partial curve, poor fit] | 
37 | Cn1c(=O)c2c(nc(OCc3cccnc3)n2Cc2c(F)cccc2Cl)n(C)c1=O |  | inactive: -0.723%
38 | O=C(CSc1ncnc2c1oc1ccccc12)NCc1ccc(F)cc1 | inconclusive: 29.1 µM [cytotoxic, single point] | 
39 | CCOCC(=O)Nc1ccc(S(=O)(=O)N2CCC(c3nc4ccccc4[nH]3)CC2)cc1 |  | inactive: 0%
40 | C[C@H]1CN(Cc2ccccc2)C(=O)[C@@H]1CC(=O)NCc1ccccc1 | inactive | 
41 | O=C1CCC[C@@H]2Cc3nc4ccc(Cl)cc4cc3[C@@H]3CCN1[C@H]23 | inactive | 
42 | COc1ccc(-c2csc(NC(=O)c3ccccc3NS(=O)(=O)c3ccc(F)c(F)c3)n2)cc1 | active: 5.17 µM | 
43 | CCOc1ccc(C(=O)Nc2ccc(N3CCN(C)CC3)cc2)cc1Br | inconclusive: 3.66 µM [cytotoxic, full curve] | 
44 | CCOc1ccc(S(=O)(=O)N/N=C2/CC(c3ccccc3)Oc3ccccc32)cc1 (configuration not stated) | inconclusive: 20.6 µM [cytotoxic, partial curve] | 
45 | O=C(OCC(=O)N1CCCC1)c1cc([N+](=O)[O-])ccc1Cl |  | inactive: -2.35%
46 | CC(C)CC(=O)NC(=S)Nc1cc(C(=O)O)ccc1Cl | inconclusive: 2.31 µM [rising, partial curve] | 
47 | COc1ccc(Cc2nnc(SC)n2-c2ccc(F)cc2)cc1OC | inconclusive: 4.11 µM [cytotoxic, full curve] | 
